Reference: PubChem BioAssay AID504467 (National Center for Advancing Translational Sciences (NCATS), 2011)
The whole screen tested about 330,000 compounds, of which about 7,700 (2.3%) were called active. This list was built around the results that the source calls inconclusive (neither active nor inactive); the mix of calls is not that of the screen. The call rests on the fitted dose curve; in most records, active means well fitted inhibition curve with a large enough effect; inconclusive means small, poorly fitted or top-dose-only effect, or effect the other way; inactive means flat fitted curve, though single readings scatter. A potency beside an inconclusive call is a rough fit, not a confirmed value.
Potency means the concentration at half of the fitted maximal effect.

Experiment: qHTS screen for small molecules that inhibit ELG1-dependent DNA repair in human embryonic kidney (HEK293T) cells expressing luciferase-tagged ELG1; further: nearly all actives have a fitted effect of over 55% in size
Conditions: HEK293T ELG1-luciferase reporter, luminescence, 16 h, DNA damage induced by 5-fluorouridine; series mostly up to 46.1 µM
Outline: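 DMSO vehicle served as the neutral condition. Each well held 2,000 cells given 5-fluorouridine plus compound; after 16 hr at 37 °C/5% CO2, ONE-Glo was added and luciferase measured 30 min later.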
For `COc1ccc2c(c1)CC/C(=C/c1ccco1)C2=O`, the Potency was inconclusive: 3.66 µM [activator, full curve].
With `CC(OC(=O)CC(NC(=O)c1ccccc1Cl)c1ccccc1)C(=O)Nc1cccc(Cl)c1Cl` (configuration not stated) the Potency was inconclusive: 29.1 µM [inhibitor, single point].
With `O=C(Nc1ccccc1Cl)C1CCN(Cc2cnn(-c3ccccc3)c2-n2cccc2)CC1` the Potency was inconclusive: 20.6 µM [inhibitor, partial curve].
In the case of `COc1cccc(-c2nnc(NC(=O)c3ccc(Cl)s3)o2)c1`, the Potency is reported as inconclusive: 29.1 µM [activator, single point].
For `C/C=C/c1ccc(OCCCN2C(=O)NC(C)(C)C2=O)c(OC)c1`, the Potency was “inactive”.
For `C=CCN(C(=O)CN1CCOCC1)c1nc(C)c(-c2ccccc2)s1`, the Potency was inconclusive: 11.6 µM [activator, partial curve].
With `O=C(/C=C\c1ccccc1OC(=O)c1ccccc1F)c1cc2ccccc2o1` the Potency was inconclusive: 13 µM [activator, partial curve].
In the case of `Cc1ccc(C(O)c2ccc(-n3ccnc3)cc2)cc1` (configuration not stated), the Potency is reported as inconclusive: 13 µM [inhibitor, partial curve, poor fit].
For `Cc1cc(-c2ccccc2)nc(SCC(=O)c2cccc([N+](=O)[O-])c2)n1`, the Potency was “inactive”.
For `COc1ccc(C)cc1NS(=O)(=O)c1ccc(NC(=O)CN(c2cc([N+](=O)[O-])ccc2C)S(C)(=O)=O)cc1`, the Potency was “inactive”.
For `CC1(C)CC(=O)c2cnc(N3CCc4ccccc43)nc2C1`, the Potency was inconclusive: 3.26 µM [activator, full curve].
In the case of `CC(=O)c1c(C)[nH]c(C(=O)Nc2cc(F)ccc2C)c1C`, the Potency is reported as “inactive”.
For `Cc1cccc(NC(=S)N(CCCN2CCOCC2)C(C)c2cc3ccccc3o2)c1C` (configuration not stated), the Potency was “inactive”.
In the case of `COc1ccc(CCn2c(=O)[nH]c3cc(C(=O)NCCc4ccccc4)ccc3c2=O)cc1OC`, the Potency is reported as inconclusive: 23.1 µM [activator, single point].
With `Cc1cccc(CSCc2ccc(C(=O)NCC3CCCO3)o2)c1` (configuration not stated) the Potency was “inactive”.
For `CCOc1cccc2cc(C(=O)N3CCN(C/C=C/c4ccccc4)CC3)c(=O)oc12`, the Potency was inconclusive: 10.3 µM [inhibitor, partial curve, poor fit].
In the case of `CN(C)c1ccc(/C=N/NC(=O)CCCCCNC(=O)c2ccccc2)cc1`, the Potency is reported as inconclusive: 23.1 µM [activator, partial curve].
With `O=C(c1cc(COc2ccc(F)cc2F)on1)N1CCN(C2CCCC2)C(=O)C1` the Potency was “inactive”.
In the case of `CC1Sc2ccc(S(=O)(=O)CCC(=O)NCc3cccs3)cc2NC1=O` (configuration not stated), the Potency is reported as “inactive”.
For `CCn1cc(CN2CCc3c([nH]c4ccccc34)C2c2cccc(O)c2)c(C)n1` (configuration not stated), the Potency was inconclusive: 29.1 µM [inhibitor, single point].
In the case of `N#CC1(NC(=O)COC(=O)c2ccc(Cl)nc2)CCCCC1`, the Potency is reported as inconclusive: 25.9 µM [activator, single point].
With `Cc1nc(N2CCC(C)CC2)c2nnn(Cc3ccccc3)c2n1` the Potency was inconclusive: 18.4 µM [inhibitor, single point].
In the case of `Cc1ccc(CSCc2nnc(SCC(=O)N3CCN(c4ccccc4)CC3)n2C)cc1`, the Potency is reported as active: 23.1 µM.
In the case of `COc1ccc(N2CCN(C(=O)CSc3nnnn3-c3ccc4c(c3)OCCO4)CC2)cc1`, the Potency is reported as active: 23.1 µM.
With `COc1ccc(C(=O)/C=C/c2ccc(F)cc2)c(OC(=O)c2ccc([N+](=O)[O-])cc2)c1` the Potency was inconclusive: 18.4 µM [activator, partial curve].
In the case of `CC1(C)CC(=O)C(N=Nc2cccc([N+](=O)[O-])c2)=C(O)C1`, the Potency is reported as inconclusive: 20.6 µM [activator, partial curve].
In the case of `COC(=O)c1cc(S(=O)(=O)NCc2ccccc2)c[nH]1`, the Potency is reported as “inactive”.
In the case of `c1ccc(Cn2c(-c3ccccc3)c[n+]3c2SCCC3)cc1`, the Potency is reported as active: 13 µM.
In the case of `O=C(CCn1c(=O)oc2ccccc21)Nc1ccc(C(=O)O)cc1`, the Potency is reported as “inactive”.
For `CCC(CC)C(=O)Nc1nnc(SCC(=O)NC2CC2)s1`, the Potency was “inactive”.
For `O=C(COC(=O)CN1C(=O)C2CCCCC2C1=O)Nc1ccc(F)c(F)c1F` (configuration not stated), the Potency was “inactive”.
In the case of `Cc1cc(C)c2c(=O)n(CC(=O)N3CCC(Cc4ccccc4)CC3)sc2n1`, the Potency is reported as “inactive”.
In the case of `Cc1cccc2nc(CSC(=N)N)c(Br)n12`, the Potency is reported as inconclusive: 5.17 µM [inhibitor, full curve].
For `COC(=O)c1cccc(C(=O)Nc2ccc(C)cc2Br)n1`, the Potency was inconclusive: 9.2 µM [activator, partial curve, poor fit].
In the case of `CC1CCN(C(=S)c2ccc3c(c2)OCO3)CC1`, the Potency is reported as “inactive”.
With `Cc1cccc2cc3c(nc12)SC(=NCC1CCCO1)N(Cc1ccco1)C3` (configuration not stated) the Potency was inconclusive: 29.1 µM [inhibitor, single point].
For `Nc1c(S(=O)(=O)c2cccs2)c2nc3ccccc3nc2n1/N=C/c1cccc(O)c1`, the Potency was active: 18.4 µM.
For `Cc1cc(C)nc(NS(=O)(=O)c2ccc(NC(=O)CSc3nc4ccccc4[nH]3)cc2)n1`, the Potency was “inactive”.
With `COc1ccc(C2=NN(c3nc(C(=O)O)cs3)C(O)(C(F)(F)F)C2)c(OC)c1` (configuration not stated) the Potency was inconclusive: 29.1 µM [activator, partial curve, poor fit].
With `O=C(COC(=O)c1ccc(F)c(S(=O)(=O)N2CCOCC2)c1)NC1CCCCC1` the Potency was “inactive”.
With `CC1SCC(NC(=O)c2cccc(Cl)c2)CS1` (configuration not stated) the Potency was “inactive”.
With `O=C(CN(c1cccc(C(F)(F)F)c1)S(=O)(=O)c1ccc(Cl)c([N+](=O)[O-])c1)NCc1ccc(F)cc1` the Potency was inconclusive: 29.1 µM [inhibitor, single point].
For `C=CCNc1nc(=S)[nH]c2cc(OC)c(OC)cc12`, the Potency was “inactive”.
In the case of `CCOC(=O)c1ccc(Cn2c(-c3ccccc3)nnc2-c2ccccc2)o1`, the Potency is reported as inconclusive: 29.1 µM [inhibitor, single point].
In the case of `C/C(=N\NC(N)=O)c1ccccc1Cl`, the Potency is reported as “inactive”.
For `OCCCNc1ncnc2oc(-c3ccccc3)c(-c3ccccc3)c12`, the Potency was inconclusive: 29.1 µM [inhibitor, single point].
For `CCOC(=O)C1CCN(C(=O)CN2C(=O)c3ccccc3S2(=O)=O)CC1`, the Potency was inconclusive: 29.1 µM [activator, single point].
